Data taken from PMC6733937.
No constants are given. Whether binding was seen depends on the method and setting. Binding seen in cells or lysates may run through a third protein. Some entries that bind do so weakly or less than the wild type.

Sequences of proteins named here, by UniProt entry; tags and fusion partners are left off.
UniProt Q13950: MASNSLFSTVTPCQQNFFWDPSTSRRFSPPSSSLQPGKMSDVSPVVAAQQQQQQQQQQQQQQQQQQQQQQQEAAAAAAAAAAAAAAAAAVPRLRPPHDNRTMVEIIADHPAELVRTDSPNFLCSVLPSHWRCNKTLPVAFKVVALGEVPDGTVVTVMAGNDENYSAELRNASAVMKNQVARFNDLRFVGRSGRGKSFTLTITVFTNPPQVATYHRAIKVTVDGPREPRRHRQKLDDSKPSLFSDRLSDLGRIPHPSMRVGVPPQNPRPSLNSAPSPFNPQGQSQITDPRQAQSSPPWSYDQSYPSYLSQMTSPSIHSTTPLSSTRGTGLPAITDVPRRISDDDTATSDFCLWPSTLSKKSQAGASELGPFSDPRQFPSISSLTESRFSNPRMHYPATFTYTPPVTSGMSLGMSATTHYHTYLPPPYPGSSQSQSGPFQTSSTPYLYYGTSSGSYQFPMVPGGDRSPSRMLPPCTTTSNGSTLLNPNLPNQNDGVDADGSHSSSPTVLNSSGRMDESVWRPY

Target: Runt-related gene 2 (RUNX2) (human (in human BMSCs)) (UniProt Q13950)
Test: co-IP; BMSC lysate; immunoprecipitation kit (Abcam); supernatant incubated with antibodies overnight at 4 °C, Protein A/G Sepharose beads 1 h at 4 °C, washed 3 times; western blotting; which protein was precipitated is not told

- binding: binds
B1: LIM and cysteine-rich domains-1 (LMCD1) (protein, UniProt Q9NZU5 1-365)
chain: MAKVAKDLNPGVKKMSLGQLQSARGVACLGCKGTCSGFEPHSWRKICKSCKCSQEDHCLTSDLEDDRKIGRLLMDSKYSTLTARVKGGDGIRIYKRNRMIMTNPIATGKDPTFDTITYEWAPPGVTQKLGLQYMELIPKEKQPVTGTEGAFYRRRQLMHQLPIYDQDPSRCRGLLENELKLMEEFVKQYKSEALGVGEVALPGQGGLPKEEGKQQEKPEGAETTAATTNGSLSDPSKEVEYVCELCKGAAPPDSPVVYSDRAGYNKQWHPTCFVCAKCSEPLVDLIYFWKDGAPWCGRHYCESLRPRCSGCDEIIFAEDYQRVEDLAWHRKHFVCEGCEQLLSGRAYIVTKGQLLCPTCSKSKRS
